Laboratory results: PubChem BioAssay AID1508597 (Cure First, 2020)
This is a random part of the about 2,100 reagents, under one of the conditions tested. 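Calls flag viability under 80% in either arm, not effects specific to rucaparib; the reference for percent is not stated.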 Not stated in the record: the 100% reference.

- Aim: 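Genes whose silencing sensitises or protects ovarian cancer cells against rucaparib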 (primary screen)
- Cells: human ovarian carcinoma lines grown from tumours: OCI-P5x (papillary serous) and OCI-C5x (clear cell)
- Reagents: siRNA pool against human genes, 1.25 pmol siRNA per well
- Duration: 72 h or 96 h, depending on the cell culture
- Conditions: rucaparib 20 µM (about IC30) or vehicle, present until read-out
- Rucaparib or vehicle: Rucaparib
- Cell line: OCI-C5x (clear cell)
- Measurement: 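ATP luminescence measured at 72 or 96 h according to the culture, then normalised and expressed as percent viability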
- Scale: viability, normalised: higher = more viable cells remaining
- Active means: 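a well counts as a hit if its normalised viability is under 80 percent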
- Calls: active = viability under 80%; inactive = viability 80% or more

Gene	technical replicate	viability, normalised (%)	outcome
LMNA	1	98.1	inactive
LMNA	2	79.4	active
LMNA	3	70.4	active
SETDB2	1	34.1	active
SETDB2	2	37.7	active
SETDB2	3	30	active
DDX6	1	53.2	active
DDX6	2	44.7	active
DDX6	3	45.3	active
PLCD3	1	67.5	active
PLCD3	2	52.8	active
PLCD3	3	58.8	active
KDM1B	1	55.1	active
KDM1B	2	42.6	active
KDM1B	3	48.6	active
AAK1	1	48.1	active
AAK1	2	41.4	active
AAK1	3	49.5	active
CAMK2A	1	55.8	active
CAMK2A	2	61.7	active
CAMK2A	3	58.2	active
TAF8	1	56.2	active
TAF8	2	39.1	active
TAF8	3	35.9	active
BLK	1	76	active
BLK	2	70.9	active
BLK	3	49.4	active
MAP3K1	1	58.3	active
MAP3K1	2	53	active
MAP3K1	3	34.8	active
GRK5	1	60.2	active
GRK5	2	67.1	active
GRK5	3	48.7	active
CARD14	1	48.3	active
CARD14	2	33.6	active
CARD14	3	72.8	active
DNMT1	1	62.7	active
DNMT1	2	64.4	active
DNMT1	3	60.9	active
CRADD	1	61.3	active
CRADD	2	74.5	active
CRADD	3	63.2	active
CSRNP2	1	75.7	active
CSRNP2	2	78	active
CSRNP2	3	64.7	active
POLE2	1	47.4	active
POLE2	2	46.6	active
POLE2	3	46.8	active
ILK	1	99.7	inactive
ILK	2	111	inactive
ILK	3	109	inactive
RSF1	1	58.7	active
RSF1	2	45.2	active
RSF1	3	50	active
APOE	1	52.4	active
APOE	2	49.8	active
APOE	3	35.6	active

No new results follow: entries from further up.
Gene	technical replicate	viability, normalised (%)	outcome
AAK1	3	49.5	active
CAMK2A	1	55.8	active
CAMK2A	2	61.7	active
CAMK2A	3	58.2	active
TAF8	1	56.2	active
TAF8	2	39.1	active
TAF8	3	35.9	active
BLK	1	76	active
